Assay results taken from paper PMC12700831.
Results are given in words; binding and its absence hold for the method and conditions named. Binding seen in cells or lysates may run through a third protein. Here binding means that the protein was enriched with, or labelled near, the bait; the list need not be complete.

Sequences of proteins named here, by UniProt entry; tags and fusion partners are left off.
UniProt Q5TEA3: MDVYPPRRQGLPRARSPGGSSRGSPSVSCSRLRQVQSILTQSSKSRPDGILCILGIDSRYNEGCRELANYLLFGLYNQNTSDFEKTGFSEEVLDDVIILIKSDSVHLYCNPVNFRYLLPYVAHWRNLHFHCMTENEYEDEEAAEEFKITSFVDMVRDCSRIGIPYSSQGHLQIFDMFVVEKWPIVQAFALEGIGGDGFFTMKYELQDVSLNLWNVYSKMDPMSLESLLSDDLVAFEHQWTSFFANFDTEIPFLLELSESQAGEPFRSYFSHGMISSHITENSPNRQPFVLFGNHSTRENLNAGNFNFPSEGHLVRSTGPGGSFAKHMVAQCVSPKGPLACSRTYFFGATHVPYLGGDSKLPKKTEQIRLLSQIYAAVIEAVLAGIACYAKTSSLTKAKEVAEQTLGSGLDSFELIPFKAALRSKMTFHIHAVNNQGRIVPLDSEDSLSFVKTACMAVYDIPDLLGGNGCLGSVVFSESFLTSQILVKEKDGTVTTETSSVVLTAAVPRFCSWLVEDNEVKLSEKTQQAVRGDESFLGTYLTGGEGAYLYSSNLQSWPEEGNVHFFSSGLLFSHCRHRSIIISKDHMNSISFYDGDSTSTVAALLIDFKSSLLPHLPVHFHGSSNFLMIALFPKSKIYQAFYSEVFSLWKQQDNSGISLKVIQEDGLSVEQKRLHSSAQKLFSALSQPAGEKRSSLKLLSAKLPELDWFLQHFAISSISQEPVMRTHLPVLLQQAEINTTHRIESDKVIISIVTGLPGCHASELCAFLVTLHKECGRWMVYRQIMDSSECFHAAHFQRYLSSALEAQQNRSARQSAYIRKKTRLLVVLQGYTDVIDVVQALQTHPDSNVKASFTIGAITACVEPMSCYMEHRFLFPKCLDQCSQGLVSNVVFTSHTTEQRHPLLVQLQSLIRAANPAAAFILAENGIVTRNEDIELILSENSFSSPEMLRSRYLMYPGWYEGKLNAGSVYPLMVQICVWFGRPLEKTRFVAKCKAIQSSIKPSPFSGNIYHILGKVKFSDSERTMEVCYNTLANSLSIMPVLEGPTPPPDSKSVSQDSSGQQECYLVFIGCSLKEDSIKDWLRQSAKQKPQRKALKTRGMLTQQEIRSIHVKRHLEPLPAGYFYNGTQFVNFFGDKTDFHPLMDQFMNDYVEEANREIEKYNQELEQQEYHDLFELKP

B1: C1ORF87 (protein, UniProt Q8N0U7 1-546)
chain: MSSAWKTPRGSDAMPEIMVKIIGSKHFQYLVEKPKIKENDSLKTETQTMHQKPMTDNARQMSRDTPVPINFTDQQTTDNPDDVKEKKHPENNQKSENNQKLLTGANSSRFLDGNIPSQANVHCSSVPTGDQSLSYVHGIPRRKLRDWSLEQMVRGSSDQPEDIGQSPSGTTNEDAFLLALVRRELKSRPLSSNLLEKLQKELKILDPISSGFLLQSQLSRLFLKHEVPLQLPTVKILCQRFSKRGSPEMVNYEKLLWFLNSAASDYPQQNKAAADLRKTESHGTHSQSTPPQHSSSQPEVNRSLLEILKMALRTTNGRLNIDNLNLSFRKEDRSFSGCLPLPKVRAICGKHGLYLTLSLLETLLNHQDLGYQNEIKWQNFVEMLTRASSDLLSDLPTGKNEKKAPAPPMEPEVPEMSQSKTEHMKTPEEELQPESSPAETSACKDPLKPLKIRPVSQPFVNPAVKNKAEECETWIDRFRKLENALYLCDLSNTGVLEKERARRLIHNYNLIYNLSLSPQKIDQALRRFRSGENMLLEPALRYLKEL
B2: CCDC17 (protein, UniProt Q96LX7 1-622)
chain: MDSHSGEPALLPCGTCDMVFRSSALLATHTQRFCIGHPTQEMTFGAQASVATEPQRAAVVPQEHQGVPQEPQGLPDQQASRSALKRLTEEVQWLRLSLQEMRPWITEVPRVFAGPWTRSEARPQSPMSEAVGSPSERLRALFRTRARRVAEMEAQSRALQLRGEELSRRLQVVACTRGGMSRLFGLEQEIRELQAEAGRTRGALEVLGARIQELQAEPGNPLSSRREAELYSPVQKANPGTLAAEIRALREAYIRDGGRDPGVLGQIWQLQVEASALELQRSQTRRGRAGATSGELPVVEAENRRLEAEILALQMQRGRAPLGPQDLRLLGDASLQPKGRRDPPLLPPPVAPPLPPLPGFSEPQLPGTMTRNLGLDSHFLLPTSDMLGPAPYDPGAGLVIFYDFLRGLEASWIWVQLRTGLARDGRDTGRTTALPPALCLPPPPAPGPMGNCAILASRQPVPRLPPSSSVSLVCELQVWQGLAWARAPQPKAWVSLGLFDQDQRVLSGRWRLPLRALPLDPSLSLGQLNGIPQAGQAELFLRLVNARDAAVQTLAEINPASVHEYQYPPPVSSTSSLEASFLTPAVGFADPPPRTEEPLSGVKDRDEGLGPHHSSDLPPVSF
B3: ODAD1 (protein, UniProt Q96M63 1-670)
chain: MEGERRAYSKEVHQRINKQLEEIRRLEEVRGDLQVQISAAQNQVKRLRDSQRLENMDRLLKGRAQVQAEIEELQEQTRALDKQIQEWETRIFTHSKNVRSPGFILDQKVKIRRRIRILENQLDRVTCHFDNQLVRNAALREELDLLRIDRNRYLNVDRKLKKEIHHLHHLVSTLILSSTSAYAVREEAKAKMGLLRERAEKEEAQSEMEAQVLQRQILHLEQLHHFLKLKNNDRQPDPDVLEKREKQAGEVAEGVWKTSQERLVLCYEDALNKLSQLMGESDPDLLVQKYLEIEERNFAEFNFINEQNLELEHVQEEIKEMQEALVSARASKDDQHLLQEQQQKVLQQRMDKVHSEAERLEARFQDVRGQLEKLKADIQLLFTKAHCDSSMIDDLLGVKTSMGDRDMGLFLSLIEKRLVELLTVQAFLHAQSFTSLADAALLVLGQSLEDLPKKMAPLQPPDTLEDPPGFEASDDYPMSREELLSQVEKLVELQEQAEAQRQKDLAAAAAKLDGTLSVDLASTQRAGSSTVLVPTRHPHAIPGSILSHKTSRDRGSLGHVTFGGLSSSTGHLPSHITHGDPNTGHVTFGSTSASSGGHVTFRPVSASSYLGSTGYVGSSRGGENTEGGVESGGTASDSSGGLGSSRDHVSSTGPASSTGPGSSTSKDSRG
B4: ODAD4 (protein, UniProt Q96NG3 1-672)
chain: MSDPEGETLRSTFPSYMAEGERLYLCGEFSKAAQSFSNALYLQDGDKNCLVARSKCFLKMGDLERSLKDAEASLQSDPAFCKGILQKAETLYTMGDFEFALVFYHRGYKLRPDREFRVGIQKAQEAINNSVGSPSSIKLENKGDLSFLSKQAENIKAQQKPQPMKHLLHPTKGEPKWKASLKSEKTVRQLLGELYVDKEYLEKLLLDEDLIKGTMKGGLTVEDLIMTGINYLDTHSNFWRQQKPIYARERDRKLMQEKWLRDHKRRPSQTAHYILKSLEDIDMLLTSGSAEGSLQKAEKVLKKVLEWNKEEVPNKDELVGNLYSCIGNAQIELGQMEAALQSHRKDLEIAKEYDLPDAKSRALDNIGRVFARVGKFQQAIDTWEEKIPLAKTTLEKTWLFHEIGRCYLELDQAWQAQNYGEKSQQCAEEEGDIEWQLNASVLVAQAQVKLRDFESAVNNFEKALERAKLVHNNEAQQAIISALDDANKGIIRELRKTNYVENLKEKSEGEASLYEDRIITREKDMRRVRDEPEKVVKQWDHSEDEKETDEDDEAFGEALQSPASGKQSVEAGKARSDLGAVAKGLSGELGTRSGETGRKLLEAGRRESREIYRRPSGELEQRLSGEFSRQEPEELKKLSEVGRREPEELGKTQFGEIGETKKTGNEMEKEYE
B5: CFAP57 (protein, UniProt Q96MR6 1-1250)
chain: MSAVVAQTLHVFGLRSHVANNIFYFDEQIIIFPSGNHCVKYNVDQKWQKFIPGSEKSQGMLALSISPNRRYLAISETVQEKPAITIYELSSIPCRKRKVLNNFDFQVQKFISMAFSPDSKYLLAQTSPPESNLVYWLWEKQKVMAIVRIDTQNNPVYQVSFSPQDNTQVCVTGNGMFKLLRFAEGTLKQTSFQRGEPQNYLAHTWVADDKIVVGTDTGKLFLFESGDQRWETSIMVKEPTNGSKSLDVIQESESLIEFPPVSSPLPSYEQMVAASSHSQMSMPQVFAIAAYSKGFACSAGPGRVLLFEKMEEKDFYRESREIRIPVDPQSNDPSQSDKQDVLCLCFSPSEETLVASTSKNQLYSITMSLTEISKGEPAHFEYLMYPLHSAPITGLATCIRKPLIATCSLDRSIRLWNYETNTLELFKEYQEEAYSISLHPSGHFIVVGFADKLRLMNLLIDDIRSFKEYSVRGCGECSFSNGGHLFAAVNGNVIHVYTTTSLENISSLKGHTGKIRSIVWNADDSKLISGGTDGAVYEWNLSTGKRETECVLKSCSYNCVTVSPDAKIIFAVGSDHTLKEIADSLILREISAFDVTYTAIVISHSGRMMFVGTSVGTIRAMKYPLPLQKEFNEYQAHAGPITKMLLTFDDQFLLTAAEDGCLFTWKVFDKDGRGIKREREVGFAEEVLVTKTDMEEKAQVMLELKTRVEELKMENEYQLRLKDMNYSEKIKELTDKFIQEMESLKTKNQVLRTEKEKQDVYHHEHIEDLLDKQSRELQDMECCNNQKLLLEYEKYQELQLKSQRMQEEYEKQLRDNDETKSQALEELTEFYEAKLQEKTTLLEEAQEDVRQQLREFEETKKQIEEDEDREIQDIKTKYEKKLRDEKESNLRLKGETGIMRKKFSSLQKEIEERTNDIETLKGEQMKLQGVIKSLEKDIQGLKREIQERDETIQDKEKRIYDLKKKNQELGKFKFVLDYKIKELKKQIEPRENEIRVMKEQIQEMEAELENFHKQNTQLELNITELWQKLRATDQEMRRERQKERDLEALVKRFKTDLHNCVAYIQEPRLLKEKVRGLFEKYVQRADMVEIAGLNTDLQQEYTRQREHLERNLATLKKKVVKEGELHRTDYVRIMQENVSLIKEINELRRELKFTRSQVYDLEAALKLTKKVRPQEVSETEPSRDMLSTAPTARLNEQEETGRIIEMQRLEIQRLRDQIQEQEQVTGFHTLAGVRLPSLSNSEVDLEVKTN
B6: ENKUR (protein, UniProt Q8TC29 1-256)
chain: MDPTCSSECIYNLIPSDLKEPPQPPRYISIFKATVKDDMQKAKTAMKTMGPAKVEVPSPKDFLKKHSKEKTLPPKKNFDRNVPKKPAVPLKTDHPVMGIQSGKNFINTNAADIIMGVAKKPKPIYVDKRTGDKHDLEPSGLVPKYINKKDYGVTPEYICKRNEEIKKAQEDYDRYIQENLKKAAMKRLSDEEREAVLQGLKKNWEEVHKEFQSLSVFIDSIPKKIRKQRLEEEMKQLEHDIGIIEKHKIIYIANNA
B7: IFT74 (endogenous, human airway epithelial cells) (protein, UniProt Q96LB3 1-600)
chain: MASNHKSSAARPVSRGGVGLTGRPPSGIRPLSGNIRVATAMPPGTARPGSRGCPIGTGGVLSSQIKVAHRPVTQQGLTGMKTGTKGPQRQILDKSYYLGLLRSKISELTTEVNKLQKGIEMYNQENSVYLSYEKRAETLAVEIKELQGQLADYNMLVDKLNTNTEMEEVMNDYNMLKAQNDRETQSLDVIFTERQAKEKQIRSVEEEIEQEKQATDDIIKNMSFENQVKYLEMKTTNEKLLQELDTLQQQLDSQNMKKESLEAEIAHSQVKQEAVLLHEKLYELESHRDQMIAEDKSIGSPMEEREKLLKQIKDDNQEIASMERQLTDTKEKINQFIEEIRQLDMDLEEHQGEMNQKYKELKKREEHMDTFIETFEETKNQELKRKAQIEANIVALLEHCSRNINRIEQISSITNQELKMMQDDLNFKSTEVQKSQSTAQNLTSDIQRLQLDLQKMELLESKMTEEQHSLKSKIKQMTTDLEIYNDLPALKSSGEEKIKKLHQERMILSTHRNAFKKIMEKQNIEYEALKTQLQENETHSQLTNLERKWQHLEQNNFAMKEFIATKSQESDYQPIKKNVTKQIAEYNKTIVDALHSTSGN
B8: IFT81 (endogenous, human airway epithelial cells) (protein, UniProt Q8WYA0 1-676)
chain: MSDQIKFIMDSLNKEPFRKNYNLITFDSLEPMQLLQVLSDVLAEIDPKQLVDIREEMPEQTAKRMLSLLGILKYKPSGNATDMSTFRQGLVIGSKPVIYPVLHWLLQRTNELKKRAYLARFLIKLEVPSEFLQDETVADTNKQYEELMEAFKTLHKEYEQLKISGFSTAEIRKDISAMEEEKDQLIKRVEHLKKRVETAQNHQWMLKIARQLRVEKEREEYLAQQKQEQKNQLFHAVQRLQRVQNQLKSMRQAAADAKPESLMKRLEEEIKFNLYMVTEKFPKELENKKKELHFLQKVVSEPAMGHSDLLELESKINEINTEINQLIEKKMMRNEPIEGKLSLYRQQASIISRKKEAKAEELQEAKEKLASLEREASVKRNQTREFDGTEVLKGDEFKRYVNKLRSKSTVFKKKHQIIAELKAEFGLLQRTEELLKQRHENIQQQLQTMEEKKGISGYSYTQEELERVSALKSEVDEMKGRTLDDMSEMVKKLYSLVSEKKSALASVIKELRQLRQKYQELTQECDEKKSQYDSCAAGLESNRSKLEQEVRRLREECLQEESRYHYTNCMIKNLEVQLRRATDEMKAYISSDQQEKRKAIREQYTKNTAEQENLGKKLREKQKVIRESHGPNMKQAKMWRDLEQLMECKKQCFLKQQSQTSIGQVIQEGGEDRLIL
B9: DNAI1 (protein, UniProt Q9UI46 1-699)
chain: MIPASAKAPHKQPHKQSISIGRGTRKRDEDSGTEVGEGTDEWAQSKATVRPPDQLELTDAELKEEFTRILTANNPHAPQNIVRYSFKEGTYKPIGFVNQLAVHYTQVGNLIPKDSDEGRRQHYRDELVAGSQESVKVISETGNLEEDEEPKELETEPGSQTDVPAAGAAEKVTEEELMTPKQPKERKLTNQFNFSERASQTYNNPVRDRECQTEPPPRTNFSATANQWEIYDAYVEELEKQEKTKEKEKAKTPVAKKSGKMAMRKLTSMESQTDDLIKLSQAAKIMERMVNQNTYDDIAQDFKYYDDAADEYRDQVGTLLPLWKFQNDKAKRLSVTALCWNPKYRDLFAVGYGSYDFMKQSRGMLLLYSLKNPSFPEYMFSSNSGVMCLDIHVDHPYLVAVGHYDGNVAIYNLKKPHSQPSFCSSAKSGKHSDPVWQVKWQKDDMDQNLNFFSVSSDGRIVSWTLVKRKLVHIDVIKLKVEGSTTEVPEGLQLHPVGCGTAFDFHKEIDYMFLVGTEEGKIYKCSKSYSSQFLDTYDAHNMSVDTVSWNPYHTKVFMSCSSDWTVKIWDHTIKTPMFIYDLNSAVGDVAWAPYSSTVFAAVTTDGKAHIFDLAINKYEAICNQPVAAKKNRLTHVQFNLIHPIIIVGDDRGHIISLKLSPNLRKMPKEKKGQEVQKGPAVEIAKLDKLLNLVREVKIKT

Target: DNAAF9 (endogenous, human airway epithelial cells) (human (endogenous in HAECs)) (UniProt Q5TEA3)
Assay: affinity purification with mass spectrometry; endogenous DNAAF9 immunoprecipitated from HAEC whole-cell lysates at ALI day 19 (ECs) and day 45 (MCs), anti-DNAAF9 against isotype-matched IgG, protein A/G beads, TMT labeling and MS

| Binder | binding |
| --- | --- |
| B1 | binds |
| B2 | binds |
| B3 | binds |
| B4 | binds |
| B5 | binds |
| B6 | binds |
| B7 | binds |
| B8 | binds |
| B9 | binds |
